Results reported in the supplement of paper PMC10849652.
Some of the results follow.

Protein sequences, listed by entry. Tags and fused reporters are not part of them. Lines headed by an entry give the natural chain unless they say otherwise; changes in a name come on top.
UniProt Q15528: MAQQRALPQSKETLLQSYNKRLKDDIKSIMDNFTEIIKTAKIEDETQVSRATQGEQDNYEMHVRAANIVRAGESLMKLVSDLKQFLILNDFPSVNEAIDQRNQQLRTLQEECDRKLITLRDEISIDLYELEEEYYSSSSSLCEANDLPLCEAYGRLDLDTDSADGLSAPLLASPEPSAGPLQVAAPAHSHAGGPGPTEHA
UniProt Q5TF39: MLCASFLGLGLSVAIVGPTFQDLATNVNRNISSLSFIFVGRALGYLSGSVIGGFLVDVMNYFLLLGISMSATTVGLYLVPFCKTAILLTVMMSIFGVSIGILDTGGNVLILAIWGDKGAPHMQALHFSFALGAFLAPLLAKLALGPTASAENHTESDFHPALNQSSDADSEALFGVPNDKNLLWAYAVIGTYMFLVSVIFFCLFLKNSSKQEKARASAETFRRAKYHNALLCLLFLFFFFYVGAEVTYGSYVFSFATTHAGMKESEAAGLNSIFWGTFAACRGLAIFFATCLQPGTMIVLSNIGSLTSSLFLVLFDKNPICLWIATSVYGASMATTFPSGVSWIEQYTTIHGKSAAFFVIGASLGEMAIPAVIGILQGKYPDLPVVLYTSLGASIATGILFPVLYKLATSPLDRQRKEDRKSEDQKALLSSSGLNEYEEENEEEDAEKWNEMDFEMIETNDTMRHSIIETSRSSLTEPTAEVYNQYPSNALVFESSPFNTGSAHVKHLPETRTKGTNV
UniProt Q9H1U4: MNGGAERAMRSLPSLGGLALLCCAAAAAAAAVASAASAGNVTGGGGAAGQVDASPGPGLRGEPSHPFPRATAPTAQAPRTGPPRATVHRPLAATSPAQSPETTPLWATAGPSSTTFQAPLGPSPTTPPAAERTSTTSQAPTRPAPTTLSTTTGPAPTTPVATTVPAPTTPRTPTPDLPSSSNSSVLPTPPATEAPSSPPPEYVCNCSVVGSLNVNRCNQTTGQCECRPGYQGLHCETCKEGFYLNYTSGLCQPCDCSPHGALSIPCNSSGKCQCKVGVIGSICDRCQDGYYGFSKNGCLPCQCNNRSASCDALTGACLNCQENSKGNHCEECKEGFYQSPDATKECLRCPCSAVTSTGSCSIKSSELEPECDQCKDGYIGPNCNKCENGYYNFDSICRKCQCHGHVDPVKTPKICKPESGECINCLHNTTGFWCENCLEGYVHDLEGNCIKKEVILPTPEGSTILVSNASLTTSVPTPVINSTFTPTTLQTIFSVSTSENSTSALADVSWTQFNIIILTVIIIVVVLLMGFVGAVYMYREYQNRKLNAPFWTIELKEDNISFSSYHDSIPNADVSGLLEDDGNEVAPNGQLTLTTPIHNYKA
UniProt A0JLT2: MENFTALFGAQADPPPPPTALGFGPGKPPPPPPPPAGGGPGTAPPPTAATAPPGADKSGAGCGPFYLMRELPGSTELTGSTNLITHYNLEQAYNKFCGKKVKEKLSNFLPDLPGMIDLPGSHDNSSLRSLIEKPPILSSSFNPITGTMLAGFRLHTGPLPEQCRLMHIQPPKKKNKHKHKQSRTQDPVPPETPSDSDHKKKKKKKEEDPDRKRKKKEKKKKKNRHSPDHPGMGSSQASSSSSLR
UniProt Q6ZNC8: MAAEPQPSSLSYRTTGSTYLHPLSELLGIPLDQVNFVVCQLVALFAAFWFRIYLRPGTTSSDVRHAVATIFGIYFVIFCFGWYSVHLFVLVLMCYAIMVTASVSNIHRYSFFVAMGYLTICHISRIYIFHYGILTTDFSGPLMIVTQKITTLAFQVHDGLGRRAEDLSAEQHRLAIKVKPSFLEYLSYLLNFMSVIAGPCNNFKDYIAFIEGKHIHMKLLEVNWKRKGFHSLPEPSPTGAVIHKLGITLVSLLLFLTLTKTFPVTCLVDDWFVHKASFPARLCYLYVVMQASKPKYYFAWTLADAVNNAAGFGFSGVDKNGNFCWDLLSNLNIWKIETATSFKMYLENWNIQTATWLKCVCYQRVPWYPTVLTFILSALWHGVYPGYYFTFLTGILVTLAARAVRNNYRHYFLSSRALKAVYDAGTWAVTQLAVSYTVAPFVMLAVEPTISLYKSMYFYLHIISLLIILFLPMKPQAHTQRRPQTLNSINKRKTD
UniProt Q9Y3C7: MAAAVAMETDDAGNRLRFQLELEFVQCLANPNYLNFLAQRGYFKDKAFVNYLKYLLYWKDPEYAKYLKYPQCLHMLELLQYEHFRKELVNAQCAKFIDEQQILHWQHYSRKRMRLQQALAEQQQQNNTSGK
UniProt Q8WXB1: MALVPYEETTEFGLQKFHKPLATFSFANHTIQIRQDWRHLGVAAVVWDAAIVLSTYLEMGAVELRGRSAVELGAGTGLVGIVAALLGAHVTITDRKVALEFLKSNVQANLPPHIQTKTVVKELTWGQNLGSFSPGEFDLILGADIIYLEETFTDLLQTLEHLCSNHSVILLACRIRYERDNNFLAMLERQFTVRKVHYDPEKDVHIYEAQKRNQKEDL
UniProt Q71SY5: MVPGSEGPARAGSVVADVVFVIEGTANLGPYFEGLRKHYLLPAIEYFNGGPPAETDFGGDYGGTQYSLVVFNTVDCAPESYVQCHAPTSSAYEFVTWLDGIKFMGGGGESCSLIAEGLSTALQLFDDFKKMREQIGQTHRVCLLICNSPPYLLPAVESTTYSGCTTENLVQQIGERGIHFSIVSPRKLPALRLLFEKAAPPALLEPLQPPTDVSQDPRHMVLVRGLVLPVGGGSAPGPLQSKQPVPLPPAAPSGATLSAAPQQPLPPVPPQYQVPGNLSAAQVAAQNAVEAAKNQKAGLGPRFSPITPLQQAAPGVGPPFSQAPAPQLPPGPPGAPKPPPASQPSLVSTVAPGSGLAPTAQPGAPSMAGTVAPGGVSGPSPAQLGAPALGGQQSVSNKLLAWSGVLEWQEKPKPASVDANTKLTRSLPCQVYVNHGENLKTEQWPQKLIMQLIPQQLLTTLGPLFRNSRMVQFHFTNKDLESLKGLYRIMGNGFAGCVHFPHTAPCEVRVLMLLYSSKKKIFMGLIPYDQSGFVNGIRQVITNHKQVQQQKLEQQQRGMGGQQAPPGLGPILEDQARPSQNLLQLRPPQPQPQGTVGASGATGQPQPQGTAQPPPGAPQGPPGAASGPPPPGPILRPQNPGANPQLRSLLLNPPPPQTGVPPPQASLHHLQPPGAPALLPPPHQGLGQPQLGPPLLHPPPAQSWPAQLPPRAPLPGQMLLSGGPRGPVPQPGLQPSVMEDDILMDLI
UniProt Q6ZN04: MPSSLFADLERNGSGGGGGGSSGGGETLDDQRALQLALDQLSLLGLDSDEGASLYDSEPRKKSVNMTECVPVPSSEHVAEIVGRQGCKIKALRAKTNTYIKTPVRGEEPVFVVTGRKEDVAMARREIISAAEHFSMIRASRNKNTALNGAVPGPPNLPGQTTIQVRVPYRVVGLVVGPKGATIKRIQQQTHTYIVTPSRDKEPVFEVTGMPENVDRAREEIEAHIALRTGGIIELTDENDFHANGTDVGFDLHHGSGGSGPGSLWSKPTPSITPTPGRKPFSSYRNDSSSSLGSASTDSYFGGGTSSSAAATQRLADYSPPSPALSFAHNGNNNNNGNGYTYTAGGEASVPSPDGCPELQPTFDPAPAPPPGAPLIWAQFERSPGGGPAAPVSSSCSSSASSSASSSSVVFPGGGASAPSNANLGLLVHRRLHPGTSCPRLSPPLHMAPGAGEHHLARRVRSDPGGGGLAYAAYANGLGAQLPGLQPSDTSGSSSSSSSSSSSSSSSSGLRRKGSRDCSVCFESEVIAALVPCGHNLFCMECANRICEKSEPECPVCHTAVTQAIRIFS
UniProt Q14703: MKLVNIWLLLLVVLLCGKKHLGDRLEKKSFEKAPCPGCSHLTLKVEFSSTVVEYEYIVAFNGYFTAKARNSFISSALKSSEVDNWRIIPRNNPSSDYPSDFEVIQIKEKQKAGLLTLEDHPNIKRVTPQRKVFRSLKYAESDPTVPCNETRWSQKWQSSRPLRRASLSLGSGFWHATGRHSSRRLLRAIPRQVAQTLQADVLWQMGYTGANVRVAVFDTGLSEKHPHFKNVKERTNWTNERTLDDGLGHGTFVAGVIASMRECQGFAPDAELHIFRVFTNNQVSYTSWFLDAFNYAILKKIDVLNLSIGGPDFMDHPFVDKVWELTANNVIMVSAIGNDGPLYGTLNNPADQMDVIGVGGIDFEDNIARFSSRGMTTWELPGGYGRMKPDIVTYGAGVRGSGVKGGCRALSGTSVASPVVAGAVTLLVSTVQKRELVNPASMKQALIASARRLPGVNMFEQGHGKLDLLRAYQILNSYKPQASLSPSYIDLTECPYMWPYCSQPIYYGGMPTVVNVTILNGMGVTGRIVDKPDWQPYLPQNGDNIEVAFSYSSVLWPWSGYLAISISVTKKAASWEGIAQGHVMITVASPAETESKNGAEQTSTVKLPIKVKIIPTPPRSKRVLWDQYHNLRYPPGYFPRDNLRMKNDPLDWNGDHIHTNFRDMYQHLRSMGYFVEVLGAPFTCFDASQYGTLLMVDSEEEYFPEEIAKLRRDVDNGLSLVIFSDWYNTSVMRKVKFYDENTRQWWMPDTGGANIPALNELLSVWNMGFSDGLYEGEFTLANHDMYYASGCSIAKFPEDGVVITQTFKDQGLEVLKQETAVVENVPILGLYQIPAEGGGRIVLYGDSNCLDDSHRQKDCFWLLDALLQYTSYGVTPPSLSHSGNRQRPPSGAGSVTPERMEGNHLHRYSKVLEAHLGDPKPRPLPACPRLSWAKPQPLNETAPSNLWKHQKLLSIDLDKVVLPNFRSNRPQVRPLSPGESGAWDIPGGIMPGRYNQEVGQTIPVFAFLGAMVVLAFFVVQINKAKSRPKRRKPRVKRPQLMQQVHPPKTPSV
UniProt O95402: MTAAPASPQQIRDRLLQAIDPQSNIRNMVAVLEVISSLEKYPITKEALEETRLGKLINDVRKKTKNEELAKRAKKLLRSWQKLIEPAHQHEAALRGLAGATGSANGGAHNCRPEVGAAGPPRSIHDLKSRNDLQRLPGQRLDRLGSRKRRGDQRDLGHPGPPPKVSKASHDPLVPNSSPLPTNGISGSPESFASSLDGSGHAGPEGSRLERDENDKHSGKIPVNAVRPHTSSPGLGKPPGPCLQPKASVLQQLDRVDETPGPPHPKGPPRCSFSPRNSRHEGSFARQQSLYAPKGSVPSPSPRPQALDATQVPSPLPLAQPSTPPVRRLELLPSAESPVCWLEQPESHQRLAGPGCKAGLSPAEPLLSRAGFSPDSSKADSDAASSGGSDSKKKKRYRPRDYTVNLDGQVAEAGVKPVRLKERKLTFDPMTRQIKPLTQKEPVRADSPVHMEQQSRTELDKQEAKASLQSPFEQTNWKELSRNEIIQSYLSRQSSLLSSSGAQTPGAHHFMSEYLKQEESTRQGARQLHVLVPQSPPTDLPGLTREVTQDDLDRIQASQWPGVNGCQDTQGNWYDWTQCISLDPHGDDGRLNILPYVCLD
UniProt Q13503: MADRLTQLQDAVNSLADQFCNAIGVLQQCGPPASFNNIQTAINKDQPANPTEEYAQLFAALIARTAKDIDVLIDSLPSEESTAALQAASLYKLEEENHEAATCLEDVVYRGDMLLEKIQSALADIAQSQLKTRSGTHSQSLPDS
UniProt Q8N6Q8: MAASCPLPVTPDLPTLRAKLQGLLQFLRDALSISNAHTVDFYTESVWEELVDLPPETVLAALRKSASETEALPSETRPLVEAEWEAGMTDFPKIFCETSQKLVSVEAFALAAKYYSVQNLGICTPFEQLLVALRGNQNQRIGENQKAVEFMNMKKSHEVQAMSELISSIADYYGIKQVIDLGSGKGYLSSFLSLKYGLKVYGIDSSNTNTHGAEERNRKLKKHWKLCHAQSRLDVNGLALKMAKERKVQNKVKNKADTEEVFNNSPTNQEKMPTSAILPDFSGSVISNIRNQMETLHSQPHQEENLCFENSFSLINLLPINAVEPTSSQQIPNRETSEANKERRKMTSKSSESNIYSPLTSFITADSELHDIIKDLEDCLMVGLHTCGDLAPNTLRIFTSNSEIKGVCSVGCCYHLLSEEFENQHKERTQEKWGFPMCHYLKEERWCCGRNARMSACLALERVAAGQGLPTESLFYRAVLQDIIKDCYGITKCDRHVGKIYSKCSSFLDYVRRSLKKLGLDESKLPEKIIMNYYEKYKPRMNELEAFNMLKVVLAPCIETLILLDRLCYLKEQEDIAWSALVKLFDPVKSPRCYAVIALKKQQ
UniProt Q8TCB7: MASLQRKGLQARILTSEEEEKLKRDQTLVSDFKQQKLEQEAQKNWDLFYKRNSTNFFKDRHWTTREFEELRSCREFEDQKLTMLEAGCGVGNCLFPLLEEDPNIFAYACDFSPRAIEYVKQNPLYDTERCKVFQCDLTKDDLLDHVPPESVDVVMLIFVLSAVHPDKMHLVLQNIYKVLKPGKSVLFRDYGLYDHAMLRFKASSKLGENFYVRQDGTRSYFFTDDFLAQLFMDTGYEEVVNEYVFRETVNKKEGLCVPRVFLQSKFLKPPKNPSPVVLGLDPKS

Legend:
Assay in all cases: log2 fold change, soluble protein after heating vs DMSO (PISA); higher = thermal stabilisation; K562 lysate, 10 uM; active = over 0.2 and 3.5 SD of the protein, either way, in both replicates (recomputed)
ibrutinib = compound: C=CC(=O)N1CCC[C@@H](n2nc(-c3ccc(Oc4ccccc4)cc3)c3c(N)ncnc32)C1 [ibrutinib]
Summary of the method: (§1)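 Quantification was by TMTpro 16plex LC-MS/MS with equalised channel sums, applied to the supernatant after 21,000xg for 90 min. Samples were crude K562 extract at 1 mg/mL protein in PBS pH 7.4 with 1 mM MgCl2, treated with 10 μM compound for 30 min, heated for 3 min across 48°C-58°C, pooled and brought to 0.5% NP-40 at 4°C. Values are log-two fold changes in thermal stability relative to solvent controls, from duplicates.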

[1] = compound: CC(=O)c1cnc2ccc(-c3cc(Cl)c(O)c(Cl)c3)nc2c1N[C@H]1CC[C@H](CN(C)C)CC1
Summary of the method: as §1

ralimetinib = compound: CC(C)(C)Cn1c(N)nc2ccc(-c3[nH]c(C(C)(C)C)nc3-c3ccc(F)cc3)nc21 [ralimetinib]
Summary of the method: as §1

[2] = compound: CC(C)(O)CC(=O)NCCn1ccc2ncnc(Nc3ccc(Oc4cccc(C(F)(F)F)c4)c(Cl)c3)c21
Summary of the method: as §1

[3] = compound: CC(C)C1=C2N=C(C=C(N2N=C1)NCC3=CC=CC=C3)NCCCCCCN
Summary of the method: as §1

[4] = compound: CC1=C(C(CC(=O)N1)C2=CC=C(C=C2)C(F)(F)F)C(=O)NC3=C(C=C4C(=C3)C=NN4)F
Summary of the method: as §1

[5] = compound: CC1=C(C2=C(C=C1)C(=O)C3=CC=CC=C3N2CCCN)C
Summary of the method: as §1

[6] = compound: CC1=C(C=C(C=C1)NC(=O)C2=CC(=CC=C2)C(C)(C)C#N)NC3=CC4=C(C=C3)N=CN(C4=O)C
Summary of the method: as §1

[7] = compound: CC1=C(C=C(C=C1)NC(=O)C2=CC(=CC=C2)N(C)C)NC(=O)C3=CC=C(C=C3)O
Summary of the method: as §1

[8] = compound: CC1=CC=C(C=C1)SC2=C3C=C(SC3=CN=C2)C(=O)N
Summary of the method: as §1

vemurafenib = compound: CCCS(=O)(=O)Nc1ccc(F)c(C(=O)c2c[nH]c3ncc(-c4ccc(Cl)cc4)cc23)c1F [vemurafenib]
Summary of the method: as §1

[9] = compound: CCCS(=O)(=O)Nc1ccc(F)c(C(=O)c2c[nH]c3ncc(Cl)cc23)c1F
Summary of the method: as §1

barasertib = compound: CCN(CCCOc1ccc2c(Nc3cc(CC(=O)Nc4cccc(F)c4)[nH]n3)ncnc2c1)CCOP(=O)(O)O [barasertib]
Summary of the method: as §1

[10] = compound: CC[C@@H]1C(=O)N(C)c2cnc(Nc3ccc(C(=O)NC4CCN(C)CC4)cc3OC)nc2N1C1CCCC1
Summary of the method: as §1

volasertib = compound: CC[C@@H]1C(=O)N(C)c2cnc(Nc3ccc(C(=O)N[C@H]4CC[C@H](N5CCN(CC6CC6)CC5)CC4)cc3OC)nc2N1C(C)C [volasertib]
Summary of the method: as §1

[11] = compound: CCn1c(C(=O)N(C2CC2)C2CC2)cc2c3c(ncn3C)c(Nc3cc(C)n(C)n3)nc21
Summary of the method: as §1

[12] = compound: CCn1cc(-c2ccnc3[nH]c(-c4cccc(CN(C)C)c4)cc23)c(-c2ccc(NC(=O)N(C)C)cc2)n1
Summary of the method: as §1

[13] = compound: CN1CCC(CNc2ccc3ncc(-c4cccc(OC(F)(F)F)c4)n3n2)CC1
Summary of the method: as §1

saracatinib = compound: CN1CCN(CCOc2cc(OC3CCOCC3)c3c(Nc4c(Cl)ccc5c4OCO5)ncnc3c2)CC1 [saracatinib]
Summary of the method: as §1

sotrastaurin = compound: CN1CCN(c2nc(C3=C(c4c[nH]c5ccccc45)C(=O)NC3=O)c3ccccc3n2)CC1 [sotrastaurin]
Summary of the method: as §1

| Target | log2 fold change (ibrutinib) | log2 fold change [1] | log2 fold change (ralimetinib) | log2 fold change [2] | log2 fold change [3] | log2 fold change [4] | log2 fold change [5] | log2 fold change [6] | log2 fold change [7] | log2 fold change [8] | log2 fold change (vemurafenib) | log2 fold change [9] | log2 fold change (barasertib) | log2 fold change [10] | log2 fold change (volasertib) | log2 fold change [11] | log2 fold change [12] | log2 fold change [13] | log2 fold change (saracatinib) | log2 fold change (sotrastaurin) |
| --- | --- | --- | --- | --- | --- | --- | --- | --- | --- | --- | --- | --- | --- | --- | --- | --- | --- | --- | --- | --- |
| MED22 isoform 2 (UniProt Q15528) | inactive: 0.144 | inactive: -0.034 | inactive: -0.075 | inactive: -0.017 | inactive: 0.043 | inactive: -0.058 | inactive: 0.067 | inactive: 0.026 | inactive: 0.083 | inactive: -0.001 | inactive: -0.037 | inactive: 0.01 | inactive: 0.12 | inactive: 0 | inactive: 0.058 | inactive: -0.05 | inactive: -0.025 | inactive: -0.128 | inactive: 0.014 | inactive: -0.013 |
| MFSD4B (UniProt Q5TF39) | inactive: -0.114 | inactive: 0.018 | inactive: 0.009 | inactive: -0.238 | inactive: 0.073 | inactive: -0.102 | inactive: -0.114 | inactive: 0.048 | inactive: 0.105 | inactive: 0.03 | – | inactive: -0.011 | inactive: -0.079 | inactive: 0.059 | inactive: -0.01 | inactive: -0.049 | inactive: -0.013 | inactive: 0.199 | inactive: 0.15 | inactive: 0.152 |
| METAP1D (UniProt Q6UB28) | inactive: 0.021 | inactive: -0.029 | inactive: 0.01 | inactive: 0.029 | inactive: -0.011 | inactive: 0.03 | inactive: 0.004 | inactive: 0.104 | inactive: -0.024 | inactive: -0.021 | inactive: 0 | inactive: -0.051 | inactive: -0.007 | inactive: 0.149 | inactive: -0.019 | inactive: -0.019 | inactive: -0.034 | inactive: 0.001 | inactive: 0.049 | inactive: -0.089 |
| MEGF9 (UniProt Q9H1U4) | inactive: 0.216 | – | inactive: -0.101 | inactive: -0.031 | inactive: -0.08 | – | inactive: 0.049 | – | inactive: -0.02 | – | inactive: 0.003 | – | inactive: 0.036 | inactive: 0.265 | – | inactive: -0.029 | inactive: 0.265 | inactive: -0.014 | inactive: 0.124 | – |
| MCRIP1 (UniProt I3L4Q0) | inactive: 0.091 | inactive: -0.005 | inactive: -0.016 | inactive: -0.001 | inactive: -0.009 | inactive: -0.027 | inactive: 0.029 | inactive: 0.013 | inactive: 0.029 | inactive: -0.041 | inactive: -0.002 | inactive: 0.005 | inactive: 0.05 | inactive: 0.05 | inactive: 0.011 | inactive: 0.028 | inactive: 0.032 | inactive: -0.023 | inactive: 0.021 | inactive: 0.055 |
| MED19 (UniProt A0JLT2) | inactive: 0.225 | inactive: 0.006 | inactive: 0.043 | inactive: 0.018 | – | – | inactive: 0.047 | inactive: 0.011 | inactive: -0.062 | inactive: -0.073 | inactive: -0.019 | inactive: 0.051 | inactive: 0.047 | – | inactive: 0.03 | inactive: -0.092 | inactive: 0.171 | inactive: -0.136 | inactive: -0.034 | inactive: 0.001 |
| MBOAT1 (UniProt Q6ZNC8) | inactive: 0.098 | inactive: -0.059 | inactive: 0.167 | inactive: -0.111 | inactive: -0.243 | inactive: -0.078 | – | inactive: 0.032 | inactive: 0.179 | inactive: 0.231 | inactive: -0.196 | inactive: 0.063 | inactive: -0.044 | inactive: -0.056 | inactive: 0.054 | inactive: 0.038 | – | – | – | inactive: 0.471 |
| MEAF6 isoform 3 (UniProt Q9HAF1) | inactive: 0.02 | inactive: -0.009 | inactive: -0.128 | inactive: 0.002 | inactive: 0.032 | inactive: 0.081 | inactive: -0.001 | inactive: 0.136 | inactive: 0.045 | inactive: -0.011 | inactive: -0.015 | inactive: 0.067 | inactive: -0.02 | inactive: 0.061 | inactive: 0.023 | inactive: 0.03 | inactive: -0.103 | inactive: 0.051 | inactive: 0 | inactive: -0.054 |
| MED31 (UniProt Q9Y3C7) | inactive: 0.092 | inactive: -0.031 | inactive: 0.092 | inactive: 0.002 | inactive: -0.051 | inactive: 0.109 | inactive: 0.051 | inactive: 0.016 | inactive: 0.05 | inactive: 0.051 | – | inactive: -0.016 | inactive: 0.068 | – | inactive: 0.057 | inactive: 0.056 | inactive: -0.068 | inactive: -0.06 | inactive: 0.06 | inactive: -0.029 |
| METTL21A (UniProt Q8WXB1) | inactive: 0.006 | inactive: -0.106 | inactive: 0.021 | inactive: -0.032 | inactive: 0 | inactive: -0.019 | inactive: -0.138 | inactive: 0 | inactive: 0.009 | inactive: -0.032 | – | inactive: 0.04 | inactive: 0.062 | – | inactive: -0.034 | inactive: -0.054 | inactive: -0.011 | inactive: 0.049 | active: 0.263 | inactive: 0.04 |
| MED25 isoform 3 (UniProt Q71SY5) | inactive: -0.034 | inactive: 0.001 | inactive: -0.071 | inactive: 0.045 | inactive: -0.023 | inactive: 0.038 | inactive: -0.039 | inactive: 0.035 | inactive: 0.057 | inactive: 0.025 | – | inactive: 0.018 | inactive: 0.034 | active: -0.256 | inactive: -0.032 | inactive: -0.046 | inactive: 0.013 | inactive: -0.056 | inactive: 0.032 | inactive: 0.083 |
| MEX3B (UniProt Q6ZN04) | inactive: -0.011 | inactive: -0.074 | inactive: -0.101 | inactive: 0.063 | inactive: 0.183 | inactive: -0.048 | inactive: 0.035 | – | inactive: -0.038 | inactive: -0.013 | – | inactive: -0.004 | inactive: -0.078 | inactive: 0.24 | inactive: 0.281 | inactive: -0.04 | inactive: -0.167 | inactive: -0.011 | inactive: 0.024 | – |
| MBTPS1 (UniProt Q14703) | inactive: -0.243 | – | inactive: 0.056 | inactive: -0.045 | inactive: -0.029 | – | inactive: -0.041 | inactive: 0.008 | inactive: 0.048 | – | inactive: 0.247 | – | inactive: 0.199 | inactive: 0.034 | – | inactive: 0.003 | inactive: 0.211 | inactive: -0.185 | inactive: -0.031 | inactive: -0.014 |
| MED26 (UniProt O95402) | inactive: -0.007 | inactive: -0.024 | inactive: -0.009 | inactive: -0.066 | inactive: -0.153 | inactive: 0.086 | – | inactive: 0.031 | inactive: 0.014 | inactive: 0.016 | inactive: -0.008 | inactive: 0.01 | inactive: 0.035 | inactive: -0.018 | inactive: -0.031 | inactive: -0.048 | inactive: -0.215 | inactive: 0.088 | – | inactive: -0.001 |
| MED21 (UniProt Q13503) | inactive: -0.105 | inactive: 0.346 | inactive: 0.032 | inactive: 0.058 | inactive: -0.144 | inactive: -0.059 | inactive: -0.18 | inactive: 0.022 | inactive: 0 | inactive: 0.056 | – | inactive: 0.133 | inactive: 0.063 | inactive: 0.225 | inactive: 0.096 | inactive: 0.035 | inactive: 0.013 | inactive: -0.022 | inactive: 0.034 | inactive: 0.029 |
| MAU2 (UniProt Q9Y6X3) | inactive: 0.082 | inactive: -0.06 | inactive: 0.039 | inactive: -0.047 | inactive: -0.051 | – | – | inactive: 0.069 | inactive: 0.006 | inactive: 0.162 | inactive: 0.031 | inactive: -0.049 | inactive: 0.03 | inactive: -0.101 | inactive: 0.025 | inactive: 0.054 | inactive: 0.046 | inactive: 0.027 | – | inactive: -0.029 |
| METTL25 (UniProt Q8N6Q8) | inactive: 0.027 | inactive: -0.073 | inactive: -0.058 | inactive: -0.106 | – | – | inactive: -0.072 | – | inactive: 0.046 | inactive: 0.065 | inactive: 0.165 | inactive: 0.027 | inactive: 0.025 | inactive: 0.143 | inactive: 0.079 | inactive: 0.055 | – | – | inactive: 0.004 | – |
| METTL6 (UniProt Q8TCB7) | inactive: -0.078 | inactive: 0.066 | inactive: 0.211 | inactive: -0.135 | – | – | inactive: -0.034 | inactive: 0.015 | inactive: 0.118 | inactive: 0.009 | inactive: -0.091 | inactive: 0.059 | inactive: 0.155 | inactive: 0.089 | inactive: -0.057 | inactive: 0.263 | inactive: -0.015 | inactive: 0.042 | inactive: -0.022 | inactive: 0.031 |

An excerpt from further up, as a working copy:

| Target | log2 fold change (ibrutinib) | log2 fold change [1] | log2 fold change (ralimetinib) | log2 fold change [2] | log2 fold change [3] | log2 fold change [4] | log2 fold change [5] | log2 fold change [6] | log2 fold change [7] | log2 fold change [8] | log2 fold change (vemurafenib) | log2 fold change [9] | log2 fold change (barasertib) | log2 fold change [10] | log2 fold change (volasertib) | log2 fold change [11] | log2 fold change [12] | log2 fold change [13] | log2 fold change (saracatinib) | log2 fold change (sotrastaurin) |
| --- | --- | --- | --- | --- | --- | --- | --- | --- | --- | --- | --- | --- | --- | --- | --- | --- | --- | --- | --- | --- |
| MED25 isoform 3 (UniProt Q71SY5) | inactive: -0.034 | inactive: 0.001 | inactive: -0.071 | inactive: 0.045 | inactive: -0.023 | inactive: 0.038 | inactive: -0.039 | inactive: 0.035 | inactive: 0.057 | inactive: 0.025 | – | inactive: 0.018 | inactive: 0.034 | active: -0.256 | inactive: -0.032 | inactive: -0.046 | inactive: 0.013 | inactive: -0.056 | inactive: 0.032 | inactive: 0.083 |
| MEX3B (UniProt Q6ZN04) | inactive: -0.011 | inactive: -0.074 | inactive: -0.101 | inactive: 0.063 | inactive: 0.183 | inactive: -0.048 | inactive: 0.035 | – | inactive: -0.038 | inactive: -0.013 | – | inactive: -0.004 | inactive: -0.078 | inactive: 0.24 | inactive: 0.281 | inactive: -0.04 | inactive: -0.167 | inactive: -0.011 | inactive: 0.024 | – |
| MBTPS1 (UniProt Q14703) | inactive: -0.243 | – | inactive: 0.056 | inactive: -0.045 | inactive: -0.029 | – | inactive: -0.041 | inactive: 0.008 | inactive: 0.048 | – | inactive: 0.247 | – | inactive: 0.199 | inactive: 0.034 | – | inactive: 0.003 | inactive: 0.211 | inactive: -0.185 | inactive: -0.031 | inactive: -0.014 |
